Literature values, collected in patent US20190117669A1, “Methods for Treating NSAID-Induced Cardiovascular, Cerebrovascular, or Renovascular Adverse Events” (University of Utah Research Foundation, priority 2016, published 2019).
At least one compound was matched to its structure with a doubt left.

Legend:
[1] = system: prostaglandin receptor
[2] = rats, celecoxib 40 mg/kg co-administered with misoprostol 100 mcg/kg for 3-9 days
[3] = meta-analysis
[4] = human, in vivo

## CCCCC(C)(O)C/C=C/[C@H]1[C@H](O)CC(=O)[C@@H]1CCCCCCC(=O)OC (mixture of isomers) [misoprostol]
[1]
  affinity for the prostaglandin receptor: high affinity
[2]
  renal function: do not improve renal function
[3]; non-transplant patients, no significant effect
  non-transplant glomerular filtration rate mean difference, misoprostol versus placebo: 0.5 mL/min
[3]; transplant patients, 95% CI in brackets
  renal transplant rejection or renal dysfunction: 0.91 [95% CI: 0.64-1.28]
[4]
  renal function in cirrhotic patients with and without ascites: did not improve renal function
  renal parameters in patients with chronic renal insufficiency: did not significantly alter renal parameters
